# PubChem BioAssay AID1508597 | Cure First – 2020
# Purpose: 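Survival screen with siRNA in ovarian cancer cells derived from patients, with or without rucaparib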 (primary screen)
# Cells: human ovarian carcinoma lines grown from tumours: OCI-P5x (papillary serous) and OCI-C5x (clear cell)
# Reagent: siRNA pool against human genes, 1.25 pmol siRNA per well
# Duration: 72 h or 96 h, depending on the cell culture
# Conditions: rucaparib 20 µM (about IC30) or vehicle, present until read-out
# Rucaparib or vehicle: Vehicle
# Cell line: OCI-P5x (serous)
# Measured: 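Luminescent ATP-based viability assay read 72 or 96 h after transfection, depending on culture, given as normalised percent viability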
# Reading the numbers: viability, normalised: higher = more viable cells remaining
# Call rule: 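a well counts as a hit if its normalised viability is under 80 percent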
# Meaning of the calls: active = viability under 80%; inactive = viability 80% or more
# Shown is an unselected part of the about 2,100 reagents, under one of the conditions tested. 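Calls flag viability under 80% in either arm, not effects specific to rucaparib; the reference for percent is not stated.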 Not given: the 100% reference.
Target gene,technical replicate,"viability, normalised (%)",Outcome
TFRC,1,82.8,inactive
TFRC,2,64.6,active
TFRC,3,77.3,active
MYB,1,50.2,active
MYB,2,58.6,active
MYB,3,70.1,active
INTS3,1,72.1,active
INTS3,2,92.2,inactive
INTS3,3,75.3,active
NIN,1,42.9,active
NIN,2,46.7,active
NIN,3,52,active
PROX1,1,61.9,active
PROX1,2,48.1,active
PROX1,3,88.4,inactive

In a second layout: entries from further up.
NIN, technical replicate 2 | viability, normalised (%): 46.7; Outcome: active
NIN, technical replicate 3 | viability, normalised (%): 52; Outcome: active

More results:
Target gene,technical replicate,"viability, normalised (%)",Outcome
DDX20,1,73.3,active
DDX20,2,71.6,active
DDX20,3,69.7,active
KIF4A,1,86.9,inactive
KIF4A,2,87.7,inactive
KIF4A,3,87,inactive
KMT5A,1,40.5,active
KMT5A,2,60.4,active
KMT5A,3,66,active
